{"source": "PubChem BioAssay AID1259308 (NCATS, 2017)", "purpose": "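Genes whose loss raises luciferase production in HEK293 cells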 (primary screen)", "cell system": "human HEK293 embryonic kidney cells stably expressing firefly luciferase (HEK-CMV-Luc2-Hygro)", "knock-down reagent": "single siRNA against human genes, 0.8 pmol siRNA per well", "duration": "72 h", "measured": "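Reporter luminescence and viable-cell signal on separate replicate plates, given as percent of non-targeting control and median/MAD z-scores, plus per-cell luciferase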", "direction": "total luciferase, z-score: higher = more reporter protein produced", "hit rule": "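Active when the median/MAD z-score for overall luciferase is greater than 3; a gene was taken forward for validation with new siRNAs if at least two of its three siRNAs passed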", "meaning of the calls": "active = raised luciferase; inactive = no rise", "note": "This is a random part of about 59,000 reagents tested. Over the whole deposit, about 1,510 (2.6%) are marked active. 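Calls use total luciferase alone and ignore viability, so some active siRNAs may act by altering cell number.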 A number with no mark means an inactive call. Not all columns of the deposit are shown."}
{"gene": "NUF2", "PubChem SID": "SID160751178", "total luciferase, z-score": 0.111}
{"gene": "NUF2", "PubChem SID": "SID160751179", "total luciferase, z-score": -1.98}
{"gene": "NUF2", "PubChem SID": "SID160751180", "total luciferase, z-score": 0.572}
{"gene": "ABCD3", "PubChem SID": "SID160715473", "total luciferase, z-score": -0.422}
{"gene": "ABCD3", "PubChem SID": "SID160715474", "total luciferase, z-score": -0.831}
{"gene": "ABCD3", "PubChem SID": "SID160715475", "total luciferase, z-score": -0.466}
{"gene": "KICS2", "PubChem SID": "SID160758174", "total luciferase, z-score": -0.447}
{"gene": "KICS2", "PubChem SID": "SID160758175", "total luciferase, z-score": 1.99}
{"gene": "KICS2", "PubChem SID": "SID160758177", "total luciferase, z-score": 1.29}
{"gene": "RPS28P6", "PubChem SID": "SID160726695", "total luciferase, z-score": -1.13}
{"gene": "RPS28P6", "PubChem SID": "SID160726697", "total luciferase, z-score": 0.0705}
{"gene": "RPS28P6", "PubChem SID": "SID160771821", "total luciferase, z-score": -1.39}
{"gene": "MATK", "PubChem SID": "SID160771597", "total luciferase, z-score": -0.707}
{"gene": "MATK", "PubChem SID": "SID160771694", "total luciferase, z-score": -1.44}
{"gene": "MATK", "PubChem SID": "SID160771778", "total luciferase, z-score": -1.47}
{"gene": "HDAC8", "PubChem SID": "SID160744559", "total luciferase, z-score": 0.0159}
{"gene": "HDAC8", "PubChem SID": "SID160744560", "total luciferase, z-score": -0.561}
{"gene": "HDAC8", "PubChem SID": "SID160744561", "total luciferase, z-score": 1.24}
{"gene": "TFDP3", "PubChem SID": "SID160740460", "total luciferase, z-score": 0.995}
{"gene": "TFDP3", "PubChem SID": "SID160740461", "total luciferase, z-score": 0.638}
{"gene": "TFDP3", "PubChem SID": "SID160740462", "total luciferase, z-score": 0.604}
{"gene": "LCN12", "PubChem SID": "SID160725042", "total luciferase, z-score": -1.31}
{"gene": "LCN12", "PubChem SID": "SID160731016", "total luciferase, z-score": -0.275}
{"gene": "LCN12", "PubChem SID": "SID160763824", "total luciferase, z-score": -1.58}
{"gene": "GON4L", "PubChem SID": "SID160742331", "total luciferase, z-score": 1.78}
{"gene": "GON4L", "PubChem SID": "SID160742333", "total luciferase, z-score": 0.0203}
{"gene": "GON4L", "PubChem SID": "SID160742334", "total luciferase, z-score": "3.17 (active)"}
{"gene": "PLPP3", "PubChem SID": "SID160720428", "total luciferase, z-score": -0.223}
{"gene": "PLPP3", "PubChem SID": "SID160720429", "total luciferase, z-score": -1.63}
{"gene": "PLPP3", "PubChem SID": "SID160720430", "total luciferase, z-score": -0.00783}
{"gene": "THYN1", "PubChem SID": "SID160739031", "total luciferase, z-score": -0.281}
{"gene": "THYN1", "PubChem SID": "SID160739032", "total luciferase, z-score": -2.25}
{"gene": "THYN1", "PubChem SID": "SID160739033", "total luciferase, z-score": 0.866}
{"gene": "LOC728684 (retired record)", "PubChem SID": "SID160726790", "total luciferase, z-score": -1.53}
{"gene": "LOC728684 (retired record)", "PubChem SID": "SID160726791", "total luciferase, z-score": -0.563}
{"gene": "LOC728684 (retired record)", "PubChem SID": "SID160772033", "total luciferase, z-score": -2.96}
{"gene": "EIF3M", "PubChem SID": "SID160728532", "total luciferase, z-score": 0.766}
{"gene": "EIF3M", "PubChem SID": "SID160728533", "total luciferase, z-score": -1.14}
{"gene": "EIF3M", "PubChem SID": "SID160728534", "total luciferase, z-score": -2.28}
{"gene": "L1TD1", "PubChem SID": "SID160741961", "total luciferase, z-score": -0.0705}
{"gene": "L1TD1", "PubChem SID": "SID160741962", "total luciferase, z-score": 2.42}
{"gene": "L1TD1", "PubChem SID": "SID160741963", "total luciferase, z-score": -0.668}
